According to publication PMC8326510:
No constants are given. Whether binding was seen depends on the method and setting. In cells and extracts the contact can be indirect. Some results given as binding are weak or reduced against the parent protein; the word gives no strength.

Chains of the proteins cited; added tags and fusions are not shown. Residues count along the entry.
UniProt P37173, residues 23-567: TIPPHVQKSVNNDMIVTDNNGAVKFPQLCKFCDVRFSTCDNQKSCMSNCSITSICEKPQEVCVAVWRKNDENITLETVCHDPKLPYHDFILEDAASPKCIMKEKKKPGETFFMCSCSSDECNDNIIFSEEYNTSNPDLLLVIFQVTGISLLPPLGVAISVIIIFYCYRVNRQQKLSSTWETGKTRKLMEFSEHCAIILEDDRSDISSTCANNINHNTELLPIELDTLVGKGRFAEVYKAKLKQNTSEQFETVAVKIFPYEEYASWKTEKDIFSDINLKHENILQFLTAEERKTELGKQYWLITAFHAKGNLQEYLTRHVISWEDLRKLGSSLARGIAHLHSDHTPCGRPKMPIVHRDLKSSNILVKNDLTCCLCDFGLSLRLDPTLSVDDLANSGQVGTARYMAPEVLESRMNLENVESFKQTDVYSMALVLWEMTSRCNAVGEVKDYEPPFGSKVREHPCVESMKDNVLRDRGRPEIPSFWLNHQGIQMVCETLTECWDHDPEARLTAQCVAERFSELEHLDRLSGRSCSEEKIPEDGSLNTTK
UniProt Q8TCU6: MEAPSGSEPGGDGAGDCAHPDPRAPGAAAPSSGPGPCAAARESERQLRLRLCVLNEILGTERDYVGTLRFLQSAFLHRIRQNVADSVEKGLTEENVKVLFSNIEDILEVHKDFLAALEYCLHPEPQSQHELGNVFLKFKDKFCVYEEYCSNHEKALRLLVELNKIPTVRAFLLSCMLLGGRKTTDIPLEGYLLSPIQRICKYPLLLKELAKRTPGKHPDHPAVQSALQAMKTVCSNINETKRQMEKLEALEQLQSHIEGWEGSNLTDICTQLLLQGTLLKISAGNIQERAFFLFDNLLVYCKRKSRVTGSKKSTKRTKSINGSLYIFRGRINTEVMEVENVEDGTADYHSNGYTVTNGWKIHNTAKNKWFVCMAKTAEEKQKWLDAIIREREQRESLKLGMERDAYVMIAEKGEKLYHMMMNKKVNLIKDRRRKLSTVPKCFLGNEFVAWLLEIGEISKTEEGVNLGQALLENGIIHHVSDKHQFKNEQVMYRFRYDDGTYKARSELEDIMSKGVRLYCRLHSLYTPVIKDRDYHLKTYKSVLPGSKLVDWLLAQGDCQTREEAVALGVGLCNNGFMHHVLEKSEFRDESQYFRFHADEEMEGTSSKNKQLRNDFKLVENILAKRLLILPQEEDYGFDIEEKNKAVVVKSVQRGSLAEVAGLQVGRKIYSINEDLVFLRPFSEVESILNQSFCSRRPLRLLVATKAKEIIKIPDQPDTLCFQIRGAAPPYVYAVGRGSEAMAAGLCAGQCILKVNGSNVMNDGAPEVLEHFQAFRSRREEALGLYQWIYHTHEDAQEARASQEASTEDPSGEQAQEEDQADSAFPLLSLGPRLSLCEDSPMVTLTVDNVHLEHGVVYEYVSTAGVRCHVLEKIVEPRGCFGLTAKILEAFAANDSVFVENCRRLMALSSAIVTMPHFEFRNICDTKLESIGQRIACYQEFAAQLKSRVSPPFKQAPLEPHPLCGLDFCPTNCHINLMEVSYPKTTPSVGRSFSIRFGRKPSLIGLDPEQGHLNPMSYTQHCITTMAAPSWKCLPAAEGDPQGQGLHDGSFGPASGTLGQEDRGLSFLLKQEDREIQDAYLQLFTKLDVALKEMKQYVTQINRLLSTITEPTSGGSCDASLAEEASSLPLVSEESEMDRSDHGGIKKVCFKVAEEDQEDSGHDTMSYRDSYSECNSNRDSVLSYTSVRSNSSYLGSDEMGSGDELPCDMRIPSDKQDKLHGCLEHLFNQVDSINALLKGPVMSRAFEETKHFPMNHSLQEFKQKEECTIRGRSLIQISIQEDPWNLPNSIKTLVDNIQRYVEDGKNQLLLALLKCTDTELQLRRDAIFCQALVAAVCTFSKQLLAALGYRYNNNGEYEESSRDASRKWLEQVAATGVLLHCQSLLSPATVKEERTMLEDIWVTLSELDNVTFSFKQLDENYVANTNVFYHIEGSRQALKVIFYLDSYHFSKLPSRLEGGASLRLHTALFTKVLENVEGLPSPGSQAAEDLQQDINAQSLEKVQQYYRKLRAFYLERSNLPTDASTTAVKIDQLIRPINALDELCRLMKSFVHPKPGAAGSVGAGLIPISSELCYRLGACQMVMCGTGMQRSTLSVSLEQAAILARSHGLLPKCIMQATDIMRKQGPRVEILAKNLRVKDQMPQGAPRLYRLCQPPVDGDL
UniProt Q69ZK0: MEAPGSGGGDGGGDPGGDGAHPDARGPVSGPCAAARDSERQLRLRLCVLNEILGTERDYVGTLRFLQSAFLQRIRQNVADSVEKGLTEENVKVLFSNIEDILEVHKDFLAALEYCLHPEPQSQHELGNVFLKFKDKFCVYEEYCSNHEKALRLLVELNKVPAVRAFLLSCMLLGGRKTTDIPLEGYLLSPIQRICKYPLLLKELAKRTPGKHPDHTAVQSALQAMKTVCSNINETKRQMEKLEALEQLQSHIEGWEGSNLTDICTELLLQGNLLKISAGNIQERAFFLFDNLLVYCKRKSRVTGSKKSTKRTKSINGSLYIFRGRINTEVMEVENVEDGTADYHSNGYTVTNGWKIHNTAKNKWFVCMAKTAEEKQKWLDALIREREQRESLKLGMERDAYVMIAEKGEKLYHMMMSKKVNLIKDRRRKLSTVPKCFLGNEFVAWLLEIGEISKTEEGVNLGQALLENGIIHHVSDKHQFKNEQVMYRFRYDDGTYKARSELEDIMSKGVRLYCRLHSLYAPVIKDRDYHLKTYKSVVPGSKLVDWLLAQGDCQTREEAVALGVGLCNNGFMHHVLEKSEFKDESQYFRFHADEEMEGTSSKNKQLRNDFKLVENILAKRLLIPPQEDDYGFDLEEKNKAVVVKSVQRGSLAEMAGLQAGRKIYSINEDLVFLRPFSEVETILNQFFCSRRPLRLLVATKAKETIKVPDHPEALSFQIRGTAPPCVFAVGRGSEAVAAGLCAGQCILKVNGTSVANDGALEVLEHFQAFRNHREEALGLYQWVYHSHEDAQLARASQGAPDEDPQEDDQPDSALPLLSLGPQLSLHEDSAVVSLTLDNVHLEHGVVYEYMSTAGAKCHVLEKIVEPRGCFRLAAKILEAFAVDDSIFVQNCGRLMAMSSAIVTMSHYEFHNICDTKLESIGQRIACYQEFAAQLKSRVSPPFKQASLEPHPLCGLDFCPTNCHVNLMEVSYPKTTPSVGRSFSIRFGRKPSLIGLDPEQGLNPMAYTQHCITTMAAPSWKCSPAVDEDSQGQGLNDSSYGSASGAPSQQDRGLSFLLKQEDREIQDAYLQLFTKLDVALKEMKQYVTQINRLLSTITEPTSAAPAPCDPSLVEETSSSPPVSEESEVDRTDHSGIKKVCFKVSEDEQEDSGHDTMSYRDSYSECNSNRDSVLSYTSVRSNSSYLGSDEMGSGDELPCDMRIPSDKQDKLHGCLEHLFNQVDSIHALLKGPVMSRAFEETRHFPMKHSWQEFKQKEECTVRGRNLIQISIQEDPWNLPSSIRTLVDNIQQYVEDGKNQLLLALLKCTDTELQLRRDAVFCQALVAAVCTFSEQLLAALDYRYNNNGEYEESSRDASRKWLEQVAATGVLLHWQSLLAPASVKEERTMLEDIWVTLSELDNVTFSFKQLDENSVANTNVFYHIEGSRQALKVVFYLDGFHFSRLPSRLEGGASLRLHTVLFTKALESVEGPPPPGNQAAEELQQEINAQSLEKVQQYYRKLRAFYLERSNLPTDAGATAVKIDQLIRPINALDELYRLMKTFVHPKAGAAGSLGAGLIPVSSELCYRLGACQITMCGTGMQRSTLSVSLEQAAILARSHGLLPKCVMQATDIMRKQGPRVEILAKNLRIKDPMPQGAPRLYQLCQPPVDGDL

Experiments:
[1] = biological target: GFP-tagged TGFβR2 (UniProt P37173); experiment: co-IP; heterologous co-IP: 293T cells co-transfected with AU5-P-Rex1 and TGFβR2-GFP (or vector/GFP), lysed in RIPA buffer 48 h after transfection; immunoprecipitation with anti-AU5 or anti-GFP antibody and Protein A/G PLUS-Agarose overnight at 4°C, five washes, Western blot
[2] = biological target: T1, endogenous TGFβR2 of mouse lung fibroblasts (mouse (endogenous in mouse lung fibroblasts)) (UniProt Q62312); experiment: co-IP; endogenous co-IP: mouse lung fibroblasts stimulated with TGF-β1 (10 ng/ml) or buffer control for a total of 2 h; immunoprecipitation with anti-TGFβR2 antibody and Protein A/G PLUS-Agarose overnight at 4°C, Western blot for P-Rex1
T1 sequence: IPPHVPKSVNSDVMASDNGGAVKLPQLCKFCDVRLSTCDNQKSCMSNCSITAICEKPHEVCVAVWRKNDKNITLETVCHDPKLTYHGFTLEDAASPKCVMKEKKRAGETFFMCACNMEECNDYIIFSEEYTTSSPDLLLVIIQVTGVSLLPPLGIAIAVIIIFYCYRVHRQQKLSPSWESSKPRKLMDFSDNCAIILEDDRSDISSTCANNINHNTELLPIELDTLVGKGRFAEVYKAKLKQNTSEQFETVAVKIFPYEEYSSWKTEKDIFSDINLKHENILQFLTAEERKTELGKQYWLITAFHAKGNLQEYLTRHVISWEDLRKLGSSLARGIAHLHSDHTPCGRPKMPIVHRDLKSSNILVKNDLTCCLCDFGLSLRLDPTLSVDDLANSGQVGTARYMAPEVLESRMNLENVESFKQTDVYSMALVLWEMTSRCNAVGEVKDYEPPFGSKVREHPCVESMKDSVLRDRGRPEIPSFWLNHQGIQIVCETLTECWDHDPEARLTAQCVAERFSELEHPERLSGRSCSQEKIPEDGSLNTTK

## AU5-tagged human P-Rex1 (from UniProt Q8TCU6 1-1659)
[1]
  binding: binds

## endogenous P-Rex1 of mouse lung fibroblasts (from UniProt Q69ZK0 1-1650)
[2]
  binding: binds
